PMC12372902
No constants are given. Whether binding was seen depends on the method and setting. For part of these data: Binding seen in cells or lysates may run through a third protein. Some binding calls cover weakened binding; strength is not graded here.

Sequences of proteins named here, by UniProt entry; tags and fusion partners are left off.
UniProt O60218: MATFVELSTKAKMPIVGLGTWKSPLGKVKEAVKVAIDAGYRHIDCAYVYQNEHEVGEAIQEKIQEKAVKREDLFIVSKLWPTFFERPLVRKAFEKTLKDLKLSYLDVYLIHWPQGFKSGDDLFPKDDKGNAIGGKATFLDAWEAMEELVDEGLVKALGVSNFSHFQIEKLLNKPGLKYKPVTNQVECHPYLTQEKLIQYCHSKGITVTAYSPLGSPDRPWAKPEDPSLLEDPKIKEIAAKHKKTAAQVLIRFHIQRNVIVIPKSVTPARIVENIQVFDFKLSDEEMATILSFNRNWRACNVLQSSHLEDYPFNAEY
UniProt Q15172: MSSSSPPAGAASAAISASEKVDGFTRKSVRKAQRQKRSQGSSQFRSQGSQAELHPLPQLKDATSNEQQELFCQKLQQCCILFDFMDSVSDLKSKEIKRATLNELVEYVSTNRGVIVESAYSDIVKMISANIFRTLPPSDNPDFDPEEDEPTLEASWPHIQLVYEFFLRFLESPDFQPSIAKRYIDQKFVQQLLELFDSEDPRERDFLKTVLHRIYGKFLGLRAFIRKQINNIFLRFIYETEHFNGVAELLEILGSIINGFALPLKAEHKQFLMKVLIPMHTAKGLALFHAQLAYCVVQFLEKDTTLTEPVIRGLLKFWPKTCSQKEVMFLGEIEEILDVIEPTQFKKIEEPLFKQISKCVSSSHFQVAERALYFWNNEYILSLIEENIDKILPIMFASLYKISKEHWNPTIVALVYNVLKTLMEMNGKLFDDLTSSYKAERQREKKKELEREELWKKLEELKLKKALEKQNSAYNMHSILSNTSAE
UniProt P30153: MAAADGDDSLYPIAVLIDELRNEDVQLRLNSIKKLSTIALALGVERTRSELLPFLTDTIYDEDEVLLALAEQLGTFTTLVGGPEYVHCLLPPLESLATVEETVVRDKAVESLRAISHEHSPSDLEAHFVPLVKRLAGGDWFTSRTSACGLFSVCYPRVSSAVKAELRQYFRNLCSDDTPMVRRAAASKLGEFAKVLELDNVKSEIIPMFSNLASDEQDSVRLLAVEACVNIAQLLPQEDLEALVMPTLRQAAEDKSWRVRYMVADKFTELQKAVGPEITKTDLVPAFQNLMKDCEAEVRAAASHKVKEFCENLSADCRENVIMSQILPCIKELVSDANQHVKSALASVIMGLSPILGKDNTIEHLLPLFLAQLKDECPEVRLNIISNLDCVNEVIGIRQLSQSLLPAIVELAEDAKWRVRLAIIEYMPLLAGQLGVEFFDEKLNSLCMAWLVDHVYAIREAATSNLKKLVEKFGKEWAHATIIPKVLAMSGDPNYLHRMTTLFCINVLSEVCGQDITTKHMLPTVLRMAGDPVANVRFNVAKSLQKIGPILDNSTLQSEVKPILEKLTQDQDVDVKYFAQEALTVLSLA
UniProt P67775: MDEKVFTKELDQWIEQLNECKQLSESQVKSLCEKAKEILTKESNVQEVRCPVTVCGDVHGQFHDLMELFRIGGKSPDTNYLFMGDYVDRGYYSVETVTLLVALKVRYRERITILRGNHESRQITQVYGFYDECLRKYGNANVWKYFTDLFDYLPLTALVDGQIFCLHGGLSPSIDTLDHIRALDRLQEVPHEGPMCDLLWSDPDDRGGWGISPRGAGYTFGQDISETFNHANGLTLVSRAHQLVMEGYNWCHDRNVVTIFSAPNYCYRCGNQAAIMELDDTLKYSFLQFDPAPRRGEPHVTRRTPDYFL

Legend:
[1] = target: recombinant GST-AKR1B10 protein (human) (UniProt O60218); experiment: pull-down; 3 μg of GST-AKR1B10 (WT or K125L) on glutathione-Sepharose beads, 3 μg of His-PPP2CA or His-PPP2R1A added overnight at 4°C, three washes with PBS, Western blot; both purified
[2] = target: endogenous AKR1B10 (human (endogenous in HCT116 and SW1116)) (UniProt O60218); experiment: co-IP; endogenous proteins, anti-AKR1B10 antibody, lysates of HCT116 and SW1116 (and gastric cancer) cells; Protein A/G PLUS-Agarose at 4°C overnight, Western blot
[3] = target: endogenous B56α (PPP2R5A), regulatory subunit of PP2A (human (endogenous in HCT116)) (UniProt Q15172); experiment: co-IP; endogenous proteins, immunoprecipitation of PPP2R5A from HCT116 shNC or shAKR1B10 lysates; cells also treated with DPI (10 μM for 20 hours) or FeTPPS (10 μM for 3 hours) or reconstituted with AKR1B10 WT, K125L or C299S; Western blot

Row | binding [1] | binding [2] | binding [3] | Substance
1 | no binding (tested: 3 μg) | – | – | recombinant His-PPP2R1A (PP2A Aα) (from UniProt P30153 1-589)
2 | – | binds | binds | endogenous PPP2CA (catalytic subunit of PP2A) (from UniProt P67775 1-309) (enzyme)
